Results from US20150361164A1.
Results are given in words; binding and its absence hold for the method and conditions named. Binding can be weak; no strength is given. One block for each binder: values may come before it.

Columns and labels:
Assay in all cases: Western blotting, antibody at 2 µg/ml
[1] = molecular target: apoptotic HMGB1 (prepared from CHO-K1 cells) (derived from CHO-K1 cells)
[2] = molecular target: necrotic HMGB1 (prepared from CHO-K1 cells) (derived from CHO-K1 cells)
[3] = molecular target: secondary necrotic HMGB1 (prepared from CHO-K1 cells) (derived from CHO-K1 cells)
[4] = molecular target: nuclear HMGB1 (prepared from CHO-K1 cells) (derived from CHO-K1 cells)

- binding [1]: binds
- binding [4]: binds
B1: rat anti-HMGB1 monoclonal antibody #10-22 (antibody, V domains shown)
VH: AVQLVESGGGLVQPKESLKISCAASGFTFSNAAMYWVRQAPGKGLEWVARIRTKPNNYATYYADSVKGRFTISRDDSKSMVYLQMDNLKTEDTAMYYCTAPRRTEGIVSSGVDYWGQGVMVTVSS
VL: YELIQPPSASVTLGNTVSITCSGDELPKRYAYWYQQKPDKSIVRVIYKDSERPSGISDRFSGSSSGTTATLTIRDTQAEDEADYYCHSTYSDDKLPVFGGGTKLTVLG
- binding [2]: binds
- binding [3]: binds

- binding [1]: binds
- binding [4]: binds
B2: #10-22 humanized antibody EV007156 (antibody, human IgG1, lambda, V domains shown)
VH: EVQLVESGGGLVQPGGSLKLSCAASGFTFSNAAMYWVRQASGKGLEWVARIRTKPNNYATYYADSVKGRFTISRDDSKNTAYLQMNSLKTEDTAVYYCTAPRRTEGIVSSGVDYWGQGTLVTVSS
VL: YELTQPPSVSVSPGQTASITCSGDELPKRYAYWYQQKPGQSIVRVIYKDSERPSGIPERFSGSSSGTTATLTISGTQAEDEADYYCHSTYSDDKLPVFGGGTKLTVLG
- binding [2]: binds
- binding [3]: binds
